In test [1] the target is androgen receptor (AR) (UniProt P10275). Briefly: co-immunoprecipitation of endogenous nuclear proteins from LNCaP cells, Western blot.
Test [2] has the same target. Briefly: co-immunoprecipitation from nuclear fraction, Western blot (FIG. 10, part B: endogenous, LNCaP). (In general: Immunoblotting shows a protein as a band on a membrane.)

Sequences of proteins named here, by UniProt entry; tags and fusion partners are left off.
UniProt P10275: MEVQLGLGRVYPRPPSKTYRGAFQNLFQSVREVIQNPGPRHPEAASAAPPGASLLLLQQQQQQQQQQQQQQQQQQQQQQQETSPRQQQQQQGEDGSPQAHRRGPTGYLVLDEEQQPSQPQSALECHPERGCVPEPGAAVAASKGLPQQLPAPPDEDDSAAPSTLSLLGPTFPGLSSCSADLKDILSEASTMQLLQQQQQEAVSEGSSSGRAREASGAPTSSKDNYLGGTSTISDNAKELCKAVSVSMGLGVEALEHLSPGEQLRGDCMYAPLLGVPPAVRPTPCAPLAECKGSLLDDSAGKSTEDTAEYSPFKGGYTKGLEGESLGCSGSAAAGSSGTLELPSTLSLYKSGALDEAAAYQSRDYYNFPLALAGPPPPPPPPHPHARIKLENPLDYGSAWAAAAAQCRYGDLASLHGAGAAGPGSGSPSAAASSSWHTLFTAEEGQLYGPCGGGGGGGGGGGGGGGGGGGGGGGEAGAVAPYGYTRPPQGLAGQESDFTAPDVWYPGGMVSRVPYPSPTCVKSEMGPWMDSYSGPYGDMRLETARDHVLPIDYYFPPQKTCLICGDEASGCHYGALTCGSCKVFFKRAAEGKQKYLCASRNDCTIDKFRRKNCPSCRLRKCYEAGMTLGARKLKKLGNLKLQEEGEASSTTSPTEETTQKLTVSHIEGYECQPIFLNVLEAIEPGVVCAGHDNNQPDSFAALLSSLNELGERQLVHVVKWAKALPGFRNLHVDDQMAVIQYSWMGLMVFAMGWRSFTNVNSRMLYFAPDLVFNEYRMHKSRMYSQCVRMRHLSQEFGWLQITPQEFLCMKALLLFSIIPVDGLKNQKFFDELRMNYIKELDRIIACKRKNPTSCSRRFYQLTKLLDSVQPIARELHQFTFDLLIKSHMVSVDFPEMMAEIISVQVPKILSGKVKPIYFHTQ

No constants are given. Whether binding was seen depends on the method and setting. In cells and extracts the contact can be indirect. Some entries that bind do so weakly or less than the wild type.

“KDM5D (endogenous, in LNCaP cells) (from UniProt Q9BY66 1-1539) (enzyme)”: the binding result with androgen receptor (AR) [1] and in the test with androgen receptor (AR) [2] was “binds” each time.

The values above are taken from patent publication US20190024185A1.
